{
  "source": "paper PMC12155308",
  "about": "“Inhibiting Infectious Bronchitis Virus PLpro Using Ubiquitin Variants” (International Journal of Molecular Sciences, 2025)",
  "binders": {"B1": {"name": "UbV.IBV.8 (designed binder)", "chain": "MLIFVKTFTRNTIALEVEPSDTIENVKAKIQDKEGIPPDQQRLIFAGKQLEDGRTLSDYNIQNESWLHLLRSLLSPTH"}, "B2": {"name": "UbV.IBV.1, recombinant, His-tagged (designed binder)", "chain": "MQIFVKTISAKTITLEVEPSDTIENVKAKIQDKEGIPPDQQGLMFAGKFLEDGRTLSDYNIPKESTLHLLMRLRGRSV", "notes": "also called UbV 1; UbV 1 monomer; source: E. coli BL21 (DE3), purified (Ni-NTA, Superdex 75 SEC)"}},
  "key": {"[1]": {"molecular_target": "T1, His6-IBV PLpro, Beaudette strain (papain-like protease domain of nsp3) (avian infectious bronchitis virus, …, UniProt P0C6Y1 1348-1659)", "T1 sequence": "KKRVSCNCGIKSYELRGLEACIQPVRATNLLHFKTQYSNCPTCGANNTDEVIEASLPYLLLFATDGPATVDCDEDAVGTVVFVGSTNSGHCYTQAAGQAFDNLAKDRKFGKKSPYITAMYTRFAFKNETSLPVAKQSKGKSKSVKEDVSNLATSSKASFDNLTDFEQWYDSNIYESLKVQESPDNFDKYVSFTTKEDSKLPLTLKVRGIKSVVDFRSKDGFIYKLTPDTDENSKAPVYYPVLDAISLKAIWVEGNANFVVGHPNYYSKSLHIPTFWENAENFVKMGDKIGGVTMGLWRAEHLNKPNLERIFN", "experiment": "cell-based or functional assay"}, "[2]": {"molecular_target": "the molecule itself", "experiment": "SEC; Superdex 75; 50 mM Tris-HCl pH 7.5, 50 mM NaCl, 1 mM DTT; two peaks with different retention times"}},
  "data": [
    {"binder": "B1", "values": [
      {"measurement": "IBV Beaudette titer (plaque assay) from FLAG-UbV-transfected DF-1 cells, MOI 0.5, 24 hpi, against the GFP control", "setting": "[1]", "result": 2, "unit": "fold decrease"}
    ]},
    {"binder": "B2", "values": [
      {"measurement": "stoichiometry N", "setting": "[2]", "result": 2}
    ]}
  ]
}
